The record followed here is PMC12238516.

Results are given in words; binding and its absence hold for the method and conditions named. Binding seen in cells or lysates may run through a third protein. Some results given as binding are weak or reduced against the parent protein; the word gives no strength.

For assay [1], the target named is T1, TRAF2, endogenous (human (endogenous in AGS)), Q12933.
T1 chain: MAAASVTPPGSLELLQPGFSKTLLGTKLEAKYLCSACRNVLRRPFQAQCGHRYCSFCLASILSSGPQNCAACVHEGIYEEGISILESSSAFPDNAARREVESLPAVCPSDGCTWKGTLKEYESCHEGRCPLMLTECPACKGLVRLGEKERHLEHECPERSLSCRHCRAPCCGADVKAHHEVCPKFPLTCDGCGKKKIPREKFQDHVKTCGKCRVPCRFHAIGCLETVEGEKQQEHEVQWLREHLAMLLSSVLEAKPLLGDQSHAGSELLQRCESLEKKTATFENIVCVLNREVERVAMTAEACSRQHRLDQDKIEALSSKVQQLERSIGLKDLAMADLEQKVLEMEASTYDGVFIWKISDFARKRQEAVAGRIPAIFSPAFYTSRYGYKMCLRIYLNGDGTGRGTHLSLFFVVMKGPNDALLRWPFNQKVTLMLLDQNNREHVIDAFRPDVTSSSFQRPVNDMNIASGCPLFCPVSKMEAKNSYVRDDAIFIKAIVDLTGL
Kind of assay: co-IP; IP with anti-TRAF2 antibody from total lysates of WT and CYLD^KO_1 AGS cells, uninfected or infected with H. pylori; immunoblot. The settings on record: remark: other sources report otherwise. Background: A western blot detects proteins with antibodies after separation by electrophoresis.

The target of assay [2] is T2, TRAF2, endogenous (human (endogenous in AGS)) (UniProt Q12933).
T2 sequence: T1 chain
Description: co-IP.

B1: A20 (tumor necrosis factor alpha-induced protein 3), endogenous, P21580 1-790 (protein)
chain: MAEQVLPQALYLSNMRKAVKIRERTPEDIFKPTNGIIHHFKTMHRYTLEMFRTCQFCPQFREIIHKALIDRNIQATLESQKKLNWCREVRKLVALKTNGDGNCLMHATSQYMWGVQDTDLVLRKALFSTLKETDTRNFKFRWQLESLKSQEFVETGLCYDTRNWNDEWDNLIKMASTDTPMARSGLQYNSLEEIHIFVLCNILRRPIIVISDKMLRSLESGSNFAPLKVGGIYLPLHWPAQECYRYPIVLGYDSHHFVPLVTLKDSGPEIRAVPLVNRDRGRFEDLKVHFLTDPENEMKEKLLKEYLMVIEIPVQGWDHGTTHLINAAKLDEANLPKEINLVDDYFELVQHEYKKWQENSEQGRREGHAQNPMEPSVPQLSLMDVKCETPNCPFFMSVNTQPLCHECSERRQKNQNKLPKLNSKPGPEGLPGMALGASRGEAYEPLAWNPEESTGGPHSAPPTAPSPFLFSETTAMKCRSPGCPFTLNVQHNGFCERCHNARQLHASHAPDHTRHLDPGKCQACLQDVTRTFNGICSTCFKRTTAEASSSLSTSLPPSCHQRSKSDPSRLVRSPSPHSCHRAGNDAPAGCLSQAARTPGDRTGTSKCRKAGCVYFGTPENKGFCTLCFIEYRENKHFAAASGKVSPTASRFQNTIPCLGRECGTLGSTMFEGYCQKCFIEAQNQRFHEAKRTEEQLRSSQRRDVPRTTQSTSRPKCARASCKNILACRSEELCMECQHPNQRMGPGAHRGEPAPEDPPKQRCRAPACDHFGNAKCNGYCNECFQFKQMYG
In the case of B1, in assay [1], the binding result is on record as “binds”.

B2: TIFA (TRAF-interacting protein with forkhead-associated domain), endogenous (protein, UniProt Q96CG3 1-184)
chain: MTSFEDADTEETVTCLQMTVYHPGQLQCGIFQSISFNREKLPSSEVVKFGRNSNICHYTFQDKQVSRVQFSLQLFKKFNSSVLSFEIKNMSKKTNLIVDSRELGYLNKMDLPYRCMVRFGEYQFLMEKEDGESLEFFETQFILSPRSLLQENNWPPHRPIPEYGTYSLCSSQSSSPTEMDENES
Regarding B2, in assay [2], the binding result is listed as “binds”.
